Source: PubChem BioAssay AID252 (DTP/NCI, 2004)
The list does not hold the whole screen: it covers a few groups of compounds. Not every dose and run of a compound is shown. T/C: endpoint of the treated group in % of that of the vehicle group. For survival time, the PubChem record calls one and a half times the control and up active, and a quarter to a half above the control has no call in these data; cut-offs in other NCI protocols can differ. Some entries show no survivor count and are marked so; the dose need not have been tolerated. Schedules are NCI's codes, read here as Q, the interval in days (D) or hours (H), X, the number of doses. Some schedule codes hold Z or #, which are not explained here.

Tested on: BDF1 mice, intracerebral L1210 leukemia, survival T/C
Experiment: NCI In Vivo Anticancer Drug Screen. Data for tumor model L1210 Leukemia (intracerebral) in B6D2F1 (BDF1) mice
Conditions: T/C endpoint: mean survival time, higher T/C = longer survival
Experimental: The antitumor activity of compounds was measured in mice bearing transplantable tumors. Survival or tumor size were measured and the results are expressed as the measurement made in the treated group (T) divided by the measurement made in the vehicle treated control group (C). The tumor model used in this assay is L1210 Leukemia (intracerebral) in B6D2F1 (BDF1) mice

Compound: NS(=O)(=O)c1ccc(N(CCBr)CCBr)cc1
- T/C (dose: 101.5 mg/kg/injection, schedule: Q01DX005 (ip), vehicle: carboxymethylcellulose (CMC)): 101 % of control [survivor count not shown]
- T/C (dose: 203.0 mg/kg/injection, schedule: Q01DX005 (ip), vehicle: carboxymethylcellulose (CMC)): 96 % of control [survivor count not shown]

Compound: NC(Cc1ccccc1N(CCCl)CCCl)C(=O)O (stereo unspecified)
- T/C (dose: 1.0 mg/kg/injection, schedule: Q01DX Z (ip), vehicle: carboxymethylcellulose (CMC)): 109 % of control [survivor count not shown]
- T/C (dose: 2.0 mg/kg/injection, schedule: Q01DX Z (ip), vehicle: carboxymethylcellulose (CMC)): 125 % of control [survivor count not shown]
- T/C (dose: 3.0 mg/kg/injection, schedule: Q01DX Z (ip), vehicle: carboxymethylcellulose (CMC)): 114 % of control [survivor count not shown]
- T/C (dose: 4.0 mg/kg/injection, schedule: Q01DX Z (ip), vehicle: carboxymethylcellulose (CMC)): 88 % of control [survivor count not shown]

Compound: CC1(C)NC(=O)N(CCN(CCCl)CCCl)C1=O
- T/C (dose: 0.78 mg/kg/injection, schedule: Q01DX009 (ip), vehicle: Klucel (hydroxypropylcellulose) (HPC)): 101 % of control [survivor count not shown]
- T/C (dose: 0.78 mg/kg/injection, schedule: Q04DX003 (ip), vehicle: saline): 100 % of control [survivor count not shown]
- T/C (dose: 1.56 mg/kg/injection, schedule: Q01DX009 (ip), vehicle: Klucel (hydroxypropylcellulose) (HPC)): 89 % of control [survivor count not shown]
- T/C (dose: 1.56 mg/kg/injection, schedule: Q04DX003 (ip), vehicle: saline): 101 % of control [survivor count not shown]
- T/C (dose: 3.12 mg/kg/injection, schedule: Q01DX009 (ip), vehicle: Klucel (hydroxypropylcellulose) (HPC)): 101 % of control [survivor count not shown]
- T/C (dose: 3.12 mg/kg/injection, schedule: Q04DX003 (ip), vehicle: saline): 101 % of control [survivor count not shown]
- T/C (dose: 6.25 mg/kg/injection, schedule: Q04DX003 (ip), vehicle: saline): 108 % of control [survivor count not shown]
- T/C (dose: 12.5 mg/kg/injection, schedule: Q04DX003 (ip), vehicle: saline): 106 % of control [survivor count not shown]

Compound: COC1OC(CN(CCCl)CCCl)C2OC(C)(C)OC12 (stereo unspecified)
- T/C (dose: 1.5 mg/kg/injection, schedule: Q04DX003 (ip), vehicle: saline): 108 % of control [survivor count not shown]
- T/C (dose: 3.0 mg/kg/injection, schedule: Q04DX003 (ip), vehicle: saline): 103 % of control [survivor count not shown]
- T/C (dose: 6.0 mg/kg/injection, schedule: Q04DX003 (ip), vehicle: saline): 92 % of control [survivor count not shown]

Compound: CCC1(CC)NC(=O)N(CCN(CCCl)CCCl)C1=O
- T/C (dose: 1.0 mg/kg/injection, schedule: Q01DX009 (ip), vehicle: saline): 101 % of control [survivor count not shown]
- T/C (dose: 1.0 mg/kg/injection, schedule: Q04DX003 (ip), vehicle: saline): 101 % of control [survivor count not shown]
- T/C (dose: 2.0 mg/kg/injection, schedule: Q01DX009 (ip), vehicle: saline): 101 % of control [survivor count not shown]
- T/C (dose: 2.0 mg/kg/injection, schedule: Q04DX003 (ip), vehicle: saline): 97 % of control [survivor count not shown]
- T/C (dose: 4.0 mg/kg/injection, schedule: Q01DX009 (ip), vehicle: saline): 111 % of control [survivor count not shown]
- T/C (dose: 4.0 mg/kg/injection, schedule: Q04DX003 (ip), vehicle: saline): 105 % of control [survivor count not shown]
- T/C (dose: 8.0 mg/kg/injection, schedule: Q01DX009 (ip), vehicle: saline): 103 % of control [survivor count not shown]
- T/C (dose: 8.0 mg/kg/injection, schedule: Q04DX003 (ip), vehicle: saline): 108 % of control [survivor count not shown]
- T/C (dose: 16.0 mg/kg/injection, schedule: Q04DX003 (ip), vehicle: saline): 94 % of control [survivor count not shown]
